Data source: PubChem BioAssay AID1259308 (NCATS, 2017)

- Purpose: 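Genes whose loss raises luciferase production in HEK293 cells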 (primary screen)
- Cells: human HEK293 embryonic kidney cells stably expressing firefly luciferase (HEK-CMV-Luc2-Hygro)
- Knock-down reagent: single siRNA against human genes, 0.8 pmol siRNA per well
- Duration: 72 h
- Read-out: 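Reporter luminescence and viable-cell signal on separate replicate plates, given as percent of non-targeting control and median/MAD z-scores, plus per-cell luciferase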
- Scale: total luciferase, z-score: higher = more reporter protein produced
- Hit rule: 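An siRNA counts as active if its total luciferase robust z-score exceeds 3; genes with two or more such siRNAs out of three were retested with fresh siRNAs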
- Meaning of the calls: active = raised luciferase; inactive = no rise
The deposit covers about 59,000 reagents; below is a random part of them. About 1,510 of them (2.6%) were called active. 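Calls use total luciferase alone and ignore viability, so some active siRNAs may act by altering cell number.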 The numbers tell different reagents against one gene apart. Not all columns of the deposit are shown. Reagent sequences are not shown.

GTPBP6 #1 → total luciferase, z-score: 0.721; outcome: inactive
GTPBP6 #2 → total luciferase, z-score: 0.857; outcome: inactive
GTPBP6 #3 → total luciferase, z-score: -1.06; outcome: inactive
PPP4R2 #1 → total luciferase, z-score: 1.03; outcome: inactive
PPP4R2 #2 → total luciferase, z-score: -1.31; outcome: inactive
PPP4R2 #3 → total luciferase, z-score: -0.377; outcome: inactive
LRRC10 #1 → total luciferase, z-score: 0.358; outcome: inactive
LRRC10 #2 → total luciferase, z-score: 0.384; outcome: inactive
LRRC10 #3 → total luciferase, z-score: 0.558; outcome: inactive
NEDD9 #1 → total luciferase, z-score: -0.177; outcome: inactive
NEDD9 #2 → total luciferase, z-score: 1.59; outcome: inactive
NEDD9 #3 → total luciferase, z-score: 0.152; outcome: inactive

Next part, starting with the last 2 of the part before.
NEDD9 #2 → total luciferase, z-score: 1.59; outcome: inactive
NEDD9 #3 → total luciferase, z-score: 0.152; outcome: inactive
LOC442132 #1 → total luciferase, z-score: 2.3; outcome: inactive
LOC442132 #2 → total luciferase, z-score: -1.69; outcome: inactive
LOC442132 #3 → total luciferase, z-score: -0.554; outcome: inactive
AQP2 #1 → total luciferase, z-score: -1.19; outcome: inactive
AQP2 #2 → total luciferase, z-score: -0.416; outcome: inactive
AQP2 #3 → total luciferase, z-score: 0.481; outcome: inactive
NOP53 #1 → total luciferase, z-score: -0.266; outcome: inactive
NOP53 #2 → total luciferase, z-score: -1.39; outcome: inactive
NOP53 #3 → total luciferase, z-score: -2.02; outcome: inactive
SYNRG #1 → total luciferase, z-score: -1.02; outcome: inactive
SYNRG #2 → total luciferase, z-score: 2.67; outcome: inactive
SYNRG #3 → total luciferase, z-score: -0.166; outcome: inactive
NAGA #1 → total luciferase, z-score: -2.53; outcome: inactive
NAGA #2 → total luciferase, z-score: -2.03; outcome: inactive
NAGA #3 → total luciferase, z-score: -0.445; outcome: inactive
UFSP2 #1 → total luciferase, z-score: 0.879; outcome: inactive
UFSP2 #2 → total luciferase, z-score: -0.876; outcome: inactive
UFSP2 #3 → total luciferase, z-score: -1.42; outcome: inactive
ARF1 #1 → total luciferase, z-score: -0.243; outcome: inactive
ARF1 #2 → total luciferase, z-score: -0.652; outcome: inactive
ARF1 #3 → total luciferase, z-score: -0.0208; outcome: inactive
